Data as given in PMC6526552.
For at least one entry, the source does not settle the construct or the ends of the probe. For part of these data: A negative result means that nothing was seen under these conditions. For part of these data: Weaker means in comparison with the reference protein, sequence or condition of that experiment.

Sequences of proteins named here, by UniProt entry; tags and fusion partners are left off. Residues count along the entry.
UniProt P02649, 19-169: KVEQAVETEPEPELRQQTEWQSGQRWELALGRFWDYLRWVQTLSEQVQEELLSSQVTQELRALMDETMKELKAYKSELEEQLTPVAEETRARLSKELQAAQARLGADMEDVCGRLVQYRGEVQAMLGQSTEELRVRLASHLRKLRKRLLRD
UniProt P02649, 19-317: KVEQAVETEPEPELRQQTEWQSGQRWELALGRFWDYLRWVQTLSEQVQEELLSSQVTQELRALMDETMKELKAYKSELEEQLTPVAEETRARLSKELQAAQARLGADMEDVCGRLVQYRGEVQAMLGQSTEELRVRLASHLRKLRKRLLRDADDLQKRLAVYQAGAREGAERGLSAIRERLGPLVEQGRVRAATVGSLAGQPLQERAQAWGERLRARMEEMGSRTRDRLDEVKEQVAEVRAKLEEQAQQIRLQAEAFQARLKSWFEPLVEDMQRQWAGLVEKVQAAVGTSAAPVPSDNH

Experiments:
[1] = target: nApoE4(1-151), amino-terminal fragment of apoE4 (UniProt P02649); experiment: EMSA; settings: EMSA: 1x binding buffer (Thermo 20148), 2.5% glycerol, 5 mM MgCl2, 50 ng/µl poly(dI-dC), 0.05% NP-40, 20 µl, room temperature 20 min, 5% TBE gel, 0.5x TBE, recombinant protein, residues 19-169, label: 5' biotin
full-length apoE4 = full-length apoE4 (UniProt P02649); experiment: EMSA; settings: 5 mM MgCl2, poly(dI-dC), 3.6 µg protein per 20 µl in Methods (legend: 25 µg/ml), 20 fmol DNA; EMSA: 1x binding buffer (Thermo 20148), 2.5% glycerol, 5 mM MgCl2, 50 ng/µl poly(dI-dC), 0.05% NP-40, 20 µl, room temperature 20 min; 5% TBE gel, 0.5x TBE; recombinant protein; label: 5' biotin

ATGCTTGTGTGTCCCCAACTTTCCAAATCCCCGCCCCCGCGATGGAGAAGAAACCGAGACAGAAGGTGCAGGGCCCACTACCGCTTCCTCCAGATGAGCTCATGGGTTTCTCCACCAAGGAAGTTTTCCGCTGGTTGAATGATTCTTTCCCCGCCCTCCTCTCGCCCCAGGGACATATAAAGGCAGTTGTTGGCACACCA (double strand)
binding result ([1]; 5 mM MgCl2, poly(dI-dC), 3.6 µg protein per 20 µl in Methods (legend: 25 µg/ml), 20 fmol DNA): binds | binding result ([1]; fragment preincubated with anti-His antibody, shift somewhat attenuated but still evident): binds more weakly | binding result (full-length apoE4): no binding
